Experimental findings from patent publication US20070128669A1, “Serum-free expansion of cells in culture” (Institute for Chemical Genomics, priority 2005, published 2007) are described below.

By UniProt entry, the sequences of proteins in these tests, tags left out. Where a name states a change or a piece, a line headed by the entry shows the natural chain unless it says otherwise.
UniProt P35222: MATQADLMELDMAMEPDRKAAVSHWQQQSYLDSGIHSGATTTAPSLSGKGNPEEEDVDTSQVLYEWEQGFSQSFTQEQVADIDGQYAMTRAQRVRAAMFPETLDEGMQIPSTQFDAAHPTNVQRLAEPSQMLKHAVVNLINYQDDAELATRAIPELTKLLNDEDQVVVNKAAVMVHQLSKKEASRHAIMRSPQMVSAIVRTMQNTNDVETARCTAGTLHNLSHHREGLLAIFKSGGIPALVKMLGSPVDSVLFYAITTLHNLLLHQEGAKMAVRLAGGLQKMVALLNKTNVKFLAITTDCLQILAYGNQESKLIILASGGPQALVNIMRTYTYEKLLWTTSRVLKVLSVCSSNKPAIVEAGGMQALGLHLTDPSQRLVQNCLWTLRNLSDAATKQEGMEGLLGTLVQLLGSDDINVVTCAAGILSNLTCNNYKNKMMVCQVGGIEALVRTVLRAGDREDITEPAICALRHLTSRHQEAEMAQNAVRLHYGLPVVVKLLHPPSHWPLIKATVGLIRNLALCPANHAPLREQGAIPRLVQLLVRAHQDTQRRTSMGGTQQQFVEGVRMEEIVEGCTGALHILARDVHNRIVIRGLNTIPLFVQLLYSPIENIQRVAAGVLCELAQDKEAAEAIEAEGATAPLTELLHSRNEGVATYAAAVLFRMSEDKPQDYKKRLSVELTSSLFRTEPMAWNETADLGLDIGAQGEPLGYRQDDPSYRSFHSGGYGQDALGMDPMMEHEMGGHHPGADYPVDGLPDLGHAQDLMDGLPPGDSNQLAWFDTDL
UniProt Q09472: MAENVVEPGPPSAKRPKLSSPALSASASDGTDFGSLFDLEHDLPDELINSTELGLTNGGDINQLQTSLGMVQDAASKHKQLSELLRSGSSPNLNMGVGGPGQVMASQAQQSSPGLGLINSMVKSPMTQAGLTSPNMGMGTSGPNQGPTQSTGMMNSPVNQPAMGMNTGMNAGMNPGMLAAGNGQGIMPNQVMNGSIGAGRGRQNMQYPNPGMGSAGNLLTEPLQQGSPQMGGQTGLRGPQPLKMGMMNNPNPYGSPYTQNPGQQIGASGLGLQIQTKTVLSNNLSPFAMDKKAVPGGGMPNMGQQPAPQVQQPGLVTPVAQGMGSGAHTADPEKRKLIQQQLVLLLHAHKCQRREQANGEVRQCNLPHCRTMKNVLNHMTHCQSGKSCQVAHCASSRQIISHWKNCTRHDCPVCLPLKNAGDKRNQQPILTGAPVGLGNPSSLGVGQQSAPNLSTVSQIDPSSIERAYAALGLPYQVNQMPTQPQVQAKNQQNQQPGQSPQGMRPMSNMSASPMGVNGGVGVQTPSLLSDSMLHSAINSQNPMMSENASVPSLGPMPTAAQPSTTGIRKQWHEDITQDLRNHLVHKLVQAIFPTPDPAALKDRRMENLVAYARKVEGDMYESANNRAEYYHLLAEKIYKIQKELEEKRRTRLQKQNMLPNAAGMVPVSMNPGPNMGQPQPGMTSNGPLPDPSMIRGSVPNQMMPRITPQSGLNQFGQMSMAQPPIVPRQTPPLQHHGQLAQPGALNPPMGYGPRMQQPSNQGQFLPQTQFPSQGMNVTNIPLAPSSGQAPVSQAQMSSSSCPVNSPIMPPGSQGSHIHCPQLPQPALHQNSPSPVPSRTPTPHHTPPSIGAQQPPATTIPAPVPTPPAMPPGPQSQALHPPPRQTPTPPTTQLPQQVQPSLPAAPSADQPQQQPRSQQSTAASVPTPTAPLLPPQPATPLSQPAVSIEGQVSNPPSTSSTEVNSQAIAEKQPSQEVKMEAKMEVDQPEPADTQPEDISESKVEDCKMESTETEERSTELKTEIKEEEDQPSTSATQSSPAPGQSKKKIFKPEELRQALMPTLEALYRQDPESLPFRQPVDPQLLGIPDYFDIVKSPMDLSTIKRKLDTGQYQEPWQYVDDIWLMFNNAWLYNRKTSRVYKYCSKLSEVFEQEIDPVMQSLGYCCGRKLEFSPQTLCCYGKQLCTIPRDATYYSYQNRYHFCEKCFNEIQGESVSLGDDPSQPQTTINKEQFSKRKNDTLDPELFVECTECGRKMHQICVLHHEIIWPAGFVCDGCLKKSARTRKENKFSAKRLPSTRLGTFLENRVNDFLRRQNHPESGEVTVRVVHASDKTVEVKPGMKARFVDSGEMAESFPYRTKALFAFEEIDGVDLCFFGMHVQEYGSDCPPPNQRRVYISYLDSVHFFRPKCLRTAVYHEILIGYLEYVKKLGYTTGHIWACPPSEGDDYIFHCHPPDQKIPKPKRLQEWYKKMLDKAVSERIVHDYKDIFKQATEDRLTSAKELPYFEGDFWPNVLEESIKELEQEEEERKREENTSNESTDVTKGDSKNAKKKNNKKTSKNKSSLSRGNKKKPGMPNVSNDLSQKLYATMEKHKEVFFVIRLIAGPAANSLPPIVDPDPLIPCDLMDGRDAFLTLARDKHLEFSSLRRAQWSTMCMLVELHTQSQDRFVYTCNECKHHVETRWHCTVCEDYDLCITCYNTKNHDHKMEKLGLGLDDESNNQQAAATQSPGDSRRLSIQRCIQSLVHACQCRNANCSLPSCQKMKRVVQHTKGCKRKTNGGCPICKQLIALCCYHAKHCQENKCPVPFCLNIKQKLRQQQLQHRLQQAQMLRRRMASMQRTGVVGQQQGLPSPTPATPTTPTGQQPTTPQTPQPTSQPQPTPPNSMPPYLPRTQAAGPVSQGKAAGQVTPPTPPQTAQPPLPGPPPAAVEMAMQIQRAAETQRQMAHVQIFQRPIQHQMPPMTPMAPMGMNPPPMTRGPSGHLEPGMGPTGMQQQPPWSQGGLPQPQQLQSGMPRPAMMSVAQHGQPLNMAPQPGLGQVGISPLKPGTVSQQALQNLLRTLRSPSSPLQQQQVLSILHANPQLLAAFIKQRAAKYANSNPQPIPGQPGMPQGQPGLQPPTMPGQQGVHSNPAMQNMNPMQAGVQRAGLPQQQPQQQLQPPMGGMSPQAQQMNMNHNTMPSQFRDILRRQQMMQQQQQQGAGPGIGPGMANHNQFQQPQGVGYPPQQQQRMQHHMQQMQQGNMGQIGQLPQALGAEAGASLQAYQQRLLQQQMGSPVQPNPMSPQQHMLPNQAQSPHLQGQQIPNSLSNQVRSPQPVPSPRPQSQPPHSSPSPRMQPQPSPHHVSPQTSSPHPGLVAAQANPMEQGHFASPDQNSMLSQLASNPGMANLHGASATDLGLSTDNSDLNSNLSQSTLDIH

Experiment [1] has as its target β-catenin (Homo sapiens (Human)) (UniProt P35222). Nature of the experiment: co-immunoprecipitation via HA-tag of in vitro phosphorylated p300 (1-110 aa) mixed with P19 lysates, western blot (FIG. 4C lane 2).
The target is the same in experiment [2]. Kind of experiment: co-immunoprecipitation of β-catenin/p300 complexes from P19 lysates after adding in vitro phosphorylated p300 (1-110aa).
For experiment [3] the target is unchanged. Kind of experiment: co-immunoprecipitation from P19 lysates (summary of Example 6).
Experiment [4] has the same target. Kind of experiment: co-immunoprecipitation via HA-tag of recombinant p300 (1-110 aa) mixed with P19 lysates, western blot (FIG. 4C).

No constants are given. Whether binding was seen depends on the method and setting. Binding seen in cells or lysates may run through a third protein. Some results given as binding are weak or reduced against the parent protein; the word gives no strength.

On to “PKCα phosphorylated p300 (1-110 aa) fused to an HA-tag (from UniProt Q09472 1-110)”, for which the binding entry in experiment [1], in experiment [2] and in experiment [3] was “binds” in each case.

For the substance “Recombinant p300 (1-110 aa) fused to an HA-tag (from UniProt Q09472 1-110)”, the binding result in experiment [4] is “binds”.
